This series is described as follows: general procedure: Fmoc solid-phase peptide synthesis; HATU/DIPEA. To be noted: late stage modification step.

For (TBK1-Diglycolate-0PEG)-(KRVHF-NMe), where the note is “HCl salt”, the step yield was determined as 19% yield.

Take KRVHF-NMe (protected): the step yield is 35% yield.

For the origin of these results see US20200268897 (published 2020).
